# Source: the supplement of paper PMC11732987, “Enantioselective OTUD7B fragment discovery through chemoproteomics screening and high-throughput optimisation” (Communications Chemistry, 2025)
# Amino acid sequences for entries named in this document (tags omitted). A change or cut given only in a name is not applied to a line headed by its entry. Residues count along the entry.
# UniProt P49792, whole entry, looked up: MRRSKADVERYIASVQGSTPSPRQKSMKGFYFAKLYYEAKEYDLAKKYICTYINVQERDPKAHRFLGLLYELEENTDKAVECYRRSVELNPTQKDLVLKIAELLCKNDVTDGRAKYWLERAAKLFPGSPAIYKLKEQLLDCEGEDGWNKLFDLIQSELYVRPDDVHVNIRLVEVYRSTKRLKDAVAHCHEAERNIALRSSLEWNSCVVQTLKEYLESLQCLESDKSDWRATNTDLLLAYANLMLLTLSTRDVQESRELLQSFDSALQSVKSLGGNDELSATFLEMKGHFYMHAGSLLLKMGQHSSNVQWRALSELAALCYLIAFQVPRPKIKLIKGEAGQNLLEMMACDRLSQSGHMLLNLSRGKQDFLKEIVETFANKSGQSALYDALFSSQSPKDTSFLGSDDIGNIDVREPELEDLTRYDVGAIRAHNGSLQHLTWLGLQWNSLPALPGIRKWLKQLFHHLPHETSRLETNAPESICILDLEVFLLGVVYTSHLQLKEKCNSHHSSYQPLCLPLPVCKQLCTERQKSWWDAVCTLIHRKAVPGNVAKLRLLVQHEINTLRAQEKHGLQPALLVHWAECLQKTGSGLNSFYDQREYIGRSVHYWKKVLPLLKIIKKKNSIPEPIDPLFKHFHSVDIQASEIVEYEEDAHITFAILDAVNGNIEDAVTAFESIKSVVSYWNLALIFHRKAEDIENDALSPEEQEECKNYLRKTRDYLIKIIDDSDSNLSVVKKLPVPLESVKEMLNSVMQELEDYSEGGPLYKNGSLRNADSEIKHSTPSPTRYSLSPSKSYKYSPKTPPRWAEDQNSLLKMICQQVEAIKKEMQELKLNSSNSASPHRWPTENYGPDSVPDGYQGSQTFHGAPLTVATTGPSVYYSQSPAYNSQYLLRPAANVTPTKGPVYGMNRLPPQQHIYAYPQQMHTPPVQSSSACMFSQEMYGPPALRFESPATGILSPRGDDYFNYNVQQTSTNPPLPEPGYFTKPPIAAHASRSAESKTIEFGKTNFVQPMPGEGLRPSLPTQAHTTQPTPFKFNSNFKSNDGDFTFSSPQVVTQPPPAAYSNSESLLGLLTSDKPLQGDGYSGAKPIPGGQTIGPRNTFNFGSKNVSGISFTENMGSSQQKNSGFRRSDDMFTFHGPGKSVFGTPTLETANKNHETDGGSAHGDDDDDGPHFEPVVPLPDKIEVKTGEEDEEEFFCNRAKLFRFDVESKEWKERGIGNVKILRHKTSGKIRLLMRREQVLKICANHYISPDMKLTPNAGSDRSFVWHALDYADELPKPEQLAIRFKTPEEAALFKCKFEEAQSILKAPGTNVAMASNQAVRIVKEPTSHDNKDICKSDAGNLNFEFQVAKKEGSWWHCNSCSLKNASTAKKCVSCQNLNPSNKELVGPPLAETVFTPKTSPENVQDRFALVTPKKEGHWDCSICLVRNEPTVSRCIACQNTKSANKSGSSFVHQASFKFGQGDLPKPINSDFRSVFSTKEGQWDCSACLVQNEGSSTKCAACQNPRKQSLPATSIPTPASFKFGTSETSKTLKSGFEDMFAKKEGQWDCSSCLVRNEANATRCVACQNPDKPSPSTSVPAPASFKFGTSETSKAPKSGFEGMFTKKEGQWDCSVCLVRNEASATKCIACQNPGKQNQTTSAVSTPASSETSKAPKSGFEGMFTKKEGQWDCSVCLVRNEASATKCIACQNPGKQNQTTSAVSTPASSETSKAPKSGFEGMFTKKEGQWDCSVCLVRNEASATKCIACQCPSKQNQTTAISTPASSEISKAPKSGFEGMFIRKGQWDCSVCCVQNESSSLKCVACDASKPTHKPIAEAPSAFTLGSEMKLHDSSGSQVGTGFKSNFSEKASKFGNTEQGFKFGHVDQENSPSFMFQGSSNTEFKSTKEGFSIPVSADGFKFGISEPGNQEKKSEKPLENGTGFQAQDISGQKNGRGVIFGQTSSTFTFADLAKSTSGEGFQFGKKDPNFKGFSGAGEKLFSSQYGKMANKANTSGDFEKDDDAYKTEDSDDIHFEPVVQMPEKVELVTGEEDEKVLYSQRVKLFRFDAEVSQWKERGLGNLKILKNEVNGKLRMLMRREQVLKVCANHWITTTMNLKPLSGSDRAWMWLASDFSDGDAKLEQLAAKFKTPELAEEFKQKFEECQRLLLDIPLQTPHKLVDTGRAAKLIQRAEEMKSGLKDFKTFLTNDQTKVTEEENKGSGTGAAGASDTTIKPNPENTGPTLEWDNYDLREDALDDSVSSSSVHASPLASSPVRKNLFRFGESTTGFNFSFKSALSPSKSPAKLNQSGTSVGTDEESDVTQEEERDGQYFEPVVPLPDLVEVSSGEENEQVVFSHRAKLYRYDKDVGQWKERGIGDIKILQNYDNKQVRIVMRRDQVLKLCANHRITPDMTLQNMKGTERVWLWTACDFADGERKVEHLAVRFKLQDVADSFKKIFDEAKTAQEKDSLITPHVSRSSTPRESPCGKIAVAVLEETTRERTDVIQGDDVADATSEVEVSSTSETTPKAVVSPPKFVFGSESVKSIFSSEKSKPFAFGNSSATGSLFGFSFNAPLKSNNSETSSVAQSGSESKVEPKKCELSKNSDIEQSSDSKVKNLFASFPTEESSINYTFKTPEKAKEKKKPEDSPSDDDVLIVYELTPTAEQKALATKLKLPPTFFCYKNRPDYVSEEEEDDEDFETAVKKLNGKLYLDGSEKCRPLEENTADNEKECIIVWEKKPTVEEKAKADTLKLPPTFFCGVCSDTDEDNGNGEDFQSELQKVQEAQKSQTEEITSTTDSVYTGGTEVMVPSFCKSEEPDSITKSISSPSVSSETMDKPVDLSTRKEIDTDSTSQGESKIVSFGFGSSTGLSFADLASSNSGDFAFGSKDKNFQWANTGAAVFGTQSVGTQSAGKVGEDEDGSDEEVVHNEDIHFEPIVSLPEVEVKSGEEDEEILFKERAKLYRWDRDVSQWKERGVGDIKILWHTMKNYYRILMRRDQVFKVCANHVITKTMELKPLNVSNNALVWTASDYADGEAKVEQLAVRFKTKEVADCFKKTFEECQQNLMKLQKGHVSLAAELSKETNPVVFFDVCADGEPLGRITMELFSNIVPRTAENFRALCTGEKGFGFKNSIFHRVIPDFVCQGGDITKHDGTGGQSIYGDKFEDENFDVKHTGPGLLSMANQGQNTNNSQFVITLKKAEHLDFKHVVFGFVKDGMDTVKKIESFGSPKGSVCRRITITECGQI
# UniProt P20936: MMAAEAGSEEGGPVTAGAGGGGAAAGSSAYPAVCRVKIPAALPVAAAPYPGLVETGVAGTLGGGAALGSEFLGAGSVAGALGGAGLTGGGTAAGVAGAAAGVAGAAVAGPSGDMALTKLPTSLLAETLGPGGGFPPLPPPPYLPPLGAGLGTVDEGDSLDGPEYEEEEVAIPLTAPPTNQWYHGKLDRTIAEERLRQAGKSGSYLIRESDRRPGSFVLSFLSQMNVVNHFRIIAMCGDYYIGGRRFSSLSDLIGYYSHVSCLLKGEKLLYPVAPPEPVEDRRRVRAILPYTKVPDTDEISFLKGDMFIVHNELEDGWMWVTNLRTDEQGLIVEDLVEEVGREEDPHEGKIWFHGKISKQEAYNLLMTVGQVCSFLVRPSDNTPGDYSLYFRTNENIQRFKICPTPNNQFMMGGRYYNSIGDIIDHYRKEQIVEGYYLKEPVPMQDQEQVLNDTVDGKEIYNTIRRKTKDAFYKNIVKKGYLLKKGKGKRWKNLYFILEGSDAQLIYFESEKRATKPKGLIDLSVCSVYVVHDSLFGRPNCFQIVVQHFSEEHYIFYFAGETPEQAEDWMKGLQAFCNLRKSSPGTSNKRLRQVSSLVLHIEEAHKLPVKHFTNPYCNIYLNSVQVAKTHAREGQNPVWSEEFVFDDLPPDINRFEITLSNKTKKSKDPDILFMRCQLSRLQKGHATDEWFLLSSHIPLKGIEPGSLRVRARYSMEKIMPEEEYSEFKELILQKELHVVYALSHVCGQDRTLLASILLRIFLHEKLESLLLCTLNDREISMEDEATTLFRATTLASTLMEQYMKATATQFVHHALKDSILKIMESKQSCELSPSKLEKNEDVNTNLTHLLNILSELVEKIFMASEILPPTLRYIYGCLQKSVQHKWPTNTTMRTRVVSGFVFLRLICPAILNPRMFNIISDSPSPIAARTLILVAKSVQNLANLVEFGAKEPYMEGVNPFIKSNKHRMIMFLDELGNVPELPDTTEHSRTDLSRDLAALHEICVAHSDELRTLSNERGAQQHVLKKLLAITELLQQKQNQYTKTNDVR
# UniProt Q5T160, 295-315: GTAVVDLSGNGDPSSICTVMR
# UniProt Q9P2N5: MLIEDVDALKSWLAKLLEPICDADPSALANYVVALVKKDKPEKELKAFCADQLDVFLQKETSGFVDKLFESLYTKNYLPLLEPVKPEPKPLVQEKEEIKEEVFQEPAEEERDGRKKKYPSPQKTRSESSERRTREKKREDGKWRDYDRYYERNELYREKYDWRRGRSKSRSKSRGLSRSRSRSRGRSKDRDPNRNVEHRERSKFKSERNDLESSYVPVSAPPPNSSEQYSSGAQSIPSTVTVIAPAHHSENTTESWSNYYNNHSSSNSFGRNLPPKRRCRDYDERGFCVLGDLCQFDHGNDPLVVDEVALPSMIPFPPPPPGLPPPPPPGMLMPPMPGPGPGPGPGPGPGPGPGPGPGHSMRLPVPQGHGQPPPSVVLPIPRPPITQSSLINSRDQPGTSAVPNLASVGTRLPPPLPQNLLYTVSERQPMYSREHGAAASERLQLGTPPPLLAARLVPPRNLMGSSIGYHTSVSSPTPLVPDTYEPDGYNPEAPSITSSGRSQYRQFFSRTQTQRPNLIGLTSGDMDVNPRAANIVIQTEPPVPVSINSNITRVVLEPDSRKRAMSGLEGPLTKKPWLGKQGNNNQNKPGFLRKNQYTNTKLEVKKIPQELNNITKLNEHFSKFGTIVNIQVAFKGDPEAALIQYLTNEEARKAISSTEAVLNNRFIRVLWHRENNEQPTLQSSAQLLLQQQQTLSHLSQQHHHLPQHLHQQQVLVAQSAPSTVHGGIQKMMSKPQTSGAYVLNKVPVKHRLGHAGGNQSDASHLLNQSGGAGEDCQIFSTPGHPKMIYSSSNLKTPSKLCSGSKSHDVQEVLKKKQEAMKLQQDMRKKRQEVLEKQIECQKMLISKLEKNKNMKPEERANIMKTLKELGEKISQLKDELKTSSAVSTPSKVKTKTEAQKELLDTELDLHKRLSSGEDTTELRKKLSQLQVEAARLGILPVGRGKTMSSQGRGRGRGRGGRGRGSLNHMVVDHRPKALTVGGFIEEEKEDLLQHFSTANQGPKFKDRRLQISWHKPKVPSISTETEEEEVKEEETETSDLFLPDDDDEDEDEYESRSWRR
# UniProt Q9BWF3: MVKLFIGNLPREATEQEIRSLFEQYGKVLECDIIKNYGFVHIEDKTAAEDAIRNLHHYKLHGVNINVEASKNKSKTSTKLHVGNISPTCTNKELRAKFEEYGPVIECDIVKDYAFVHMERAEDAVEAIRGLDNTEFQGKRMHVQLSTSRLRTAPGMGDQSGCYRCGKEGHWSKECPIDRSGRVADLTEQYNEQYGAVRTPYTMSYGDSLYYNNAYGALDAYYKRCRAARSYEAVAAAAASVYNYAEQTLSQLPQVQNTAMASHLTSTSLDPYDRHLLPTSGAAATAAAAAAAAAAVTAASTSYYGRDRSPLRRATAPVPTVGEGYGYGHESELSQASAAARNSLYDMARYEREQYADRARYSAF
# UniProt Q96S59, 587-606: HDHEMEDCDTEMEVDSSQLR
# UniProt Q9HBH0: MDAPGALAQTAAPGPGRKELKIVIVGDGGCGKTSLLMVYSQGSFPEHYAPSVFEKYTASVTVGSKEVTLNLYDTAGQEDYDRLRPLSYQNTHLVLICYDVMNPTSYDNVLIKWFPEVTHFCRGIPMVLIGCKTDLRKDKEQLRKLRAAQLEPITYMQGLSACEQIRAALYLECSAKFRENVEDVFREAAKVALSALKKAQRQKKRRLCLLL
# UniProt Q4ADV7, 408-429: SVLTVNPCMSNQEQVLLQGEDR
# UniProt P48382: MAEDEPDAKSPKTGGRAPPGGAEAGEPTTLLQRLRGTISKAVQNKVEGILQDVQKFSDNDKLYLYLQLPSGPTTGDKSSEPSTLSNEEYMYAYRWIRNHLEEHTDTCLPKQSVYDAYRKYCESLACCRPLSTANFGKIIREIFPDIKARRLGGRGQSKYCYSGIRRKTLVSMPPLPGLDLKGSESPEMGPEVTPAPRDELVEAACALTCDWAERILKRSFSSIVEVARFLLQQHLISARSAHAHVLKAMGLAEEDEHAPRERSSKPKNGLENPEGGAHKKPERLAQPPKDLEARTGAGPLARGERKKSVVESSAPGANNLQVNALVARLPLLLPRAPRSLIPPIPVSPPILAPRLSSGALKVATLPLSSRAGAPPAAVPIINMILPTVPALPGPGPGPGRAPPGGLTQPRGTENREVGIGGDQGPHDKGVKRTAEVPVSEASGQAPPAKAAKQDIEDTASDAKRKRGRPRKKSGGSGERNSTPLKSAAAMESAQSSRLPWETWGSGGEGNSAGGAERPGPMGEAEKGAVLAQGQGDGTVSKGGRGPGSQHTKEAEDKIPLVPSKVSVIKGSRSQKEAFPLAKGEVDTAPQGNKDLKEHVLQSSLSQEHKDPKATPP
# The other results are listed elsewhere or left out. The data scatter; read single values as rough.
# Compound: ClCC(=O)N[C@@H]1CCCc2ccccc12
# Assay: log2 mean competition ratio of IA-DTB cysteine labelling (DMSO/compound) (log2 ratio); higher = stronger cysteine engagement by compound
# Conditions: 50 µM; treatment time: 4 h; cell line lysate: HEK293T
# Procedure: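 IA-DTB competitive cysteine chemoproteomics in HEK293T RIPA lysate. Lysates were treated with compound 29 or 30 at 50 or 200 µM for 4 h, then IA-DTB (500 µM, 1 h), trypsin-digested, NeutrAvidin-enriched and analysed by diaPASEF. Competition ratio = intensity DMSO / intensity compound (n=4 treated, n=64 DMSO); binding: mean log2 CR ≥ 1 and p ≤ 0.05 plus QC filters. Target is the cysteine site.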
row,Target,log2 mean competition ratio
1,RANBP2 C3122 (UniProt P49792),-0.488
2,RANBP2 C2710 (UniProt P49792),-0.0601
3,RASA1 C906 (UniProt P20936),-0.0143
4,RANBP2 C815 (UniProt P49792),0.293
5,RECQL5 C427 (UniProt O94762),0.0566
6,RARS2 C311 (UniProt Q5T160),-0.147
7,RMC1 C11 (UniProt Q96DM3),-0.0285
8,RBPJ C180 (UniProt Q06330),-0.0597
9,RIPK2 C324 (UniProt O43353),-0.068
10,RBM27 C49 (UniProt Q9P2N5),0.552
11,RAF1 C588 (UniProt P04049),-0.249
12,RBM4 C31 (UniProt Q9BWF3),-0.0279
13,RARA C148,-0.0704
14,RELCH C605 (UniProt Q9P260),-0.0231
15,RARS2 C74 (UniProt Q5T160),-0.0301
16,RANBP9 C594 (UniProt Q96S59),-0.45
17,RHOF C30 (UniProt Q9HBH0),0.0202
18,RIC1 C415 (UniProt Q4ADV7),0.0479
19,RARA C444,-0.123
20,RB1 C278 (UniProt P06400),-0.255
21,RCL1 C171,0.392
22,RBM4 C89 (UniProt Q9BWF3),-0.0444
23,RARS1 C502,-0.155
24,RHOT1 C175 (UniProt Q8IXI2),0.161
25,RFC4 C141 (UniProt P35249),-0.219
26,RCC2 C144 (UniProt Q9P258),0.318
27,RHOF C173 (UniProt Q9HBH0),0.248
28,RFX5 C107 (UniProt P48382),-0.145
29,RBBP7 C97,-0.221

# In another format: results already given.
row	Target	log2 mean competition ratio
16	RANBP9 C594 (UniProt Q96S59)	-0.45
17	RHOF C30 (UniProt Q9HBH0)	0.0202
